In patent US11571403B2, “Methods for the treatment of non-alcoholic steatohepatitis” (Eiger Biopharmaceuticals, Inc., priority 2016, dated 2023):

Tested on: STAM mouse model for NASH
Test: Plasma LTB4, STAM mouse NASH model (Example 1)
Format: in vivo

| Structure (SMILES) | Plasma LTB4 relative to the control (ubenimex high dose (25 mg/kg BID, 7 to 9 weeks)) | Plasma LTB4 relative to the control (ubenimex low dose (5 mg/kg BID, 7 to 9 weeks)) | Plasma LTB4 relative to the control (telmisartan (10 mg/kg QD, 7 to 9 weeks)) |
| --- | --- | --- | --- |
| CC(C)C[C@H](NC(=O)[C@@H](O)[C@H](N)Cc1ccccc1)C(=O)O [Ubenimex, (2S)-2-[[(2S,3R)-3-amino-2-hydroxy-4-phenylbutanoyl]amino]-4-methylpentanoic acid] | not statistically different | some tendency to increase plasma LTB4 | – |
| CCCc1nc2c(C)cc(-c3nc4ccccc4n3C)cc2n1Cc1ccc(-c2ccccc2C(=O)O)cc1 [Telmisartan, telmisartan] | – | – | some tendency to increase plasma LTB4 |
